According to article PMC7387728:
These are yes or no findings as the source states them, for the method shown. In cells and extracts the contact can be indirect. Some entries that bind do so weakly or less than the wild type.

Key:
[1] = target: PD-L1 (human (endogenous in SGC7901)) (UniProt Q9NZQ7); assay: co-IP; PD-L1 precipitated with antibodies or control IgG from SGC7901 lysates pre-cleared with protein G-agarose beads; immunoprecipitates washed four times in lysis buffer; Western blot with anti-p-EGFR and anti-EGFR; cells treated with TRAIL (100 ng/ml)
[2] = target: PD-L1 (human (endogenous in SGC7901)) (UniProt Q9NZQ7); assay: proximity ligation; Duolink in situ PLA in SGC7901 cells after TRAIL treatment (100 ng/ml); primary antibodies for PD-L1 and p-EGFR; confocal fluorescence microscopy

Substance	binding [1]	binding [2]
epidermal growth factor receptor (EGFR) (from UniProt P00533 25-1210)	binds	–
phosphorylated EGFR (p-EGFR) (from UniProt P00533 25-1210) (receptor)	binds	binds
